From paper PMC11335210 come the findings set out here.

This assay addresses T1, human PKP4 N-terminally tagged with EGFP (EGFP-PKP4-WT) (human) (UniProt Q99569).
T1 sequence: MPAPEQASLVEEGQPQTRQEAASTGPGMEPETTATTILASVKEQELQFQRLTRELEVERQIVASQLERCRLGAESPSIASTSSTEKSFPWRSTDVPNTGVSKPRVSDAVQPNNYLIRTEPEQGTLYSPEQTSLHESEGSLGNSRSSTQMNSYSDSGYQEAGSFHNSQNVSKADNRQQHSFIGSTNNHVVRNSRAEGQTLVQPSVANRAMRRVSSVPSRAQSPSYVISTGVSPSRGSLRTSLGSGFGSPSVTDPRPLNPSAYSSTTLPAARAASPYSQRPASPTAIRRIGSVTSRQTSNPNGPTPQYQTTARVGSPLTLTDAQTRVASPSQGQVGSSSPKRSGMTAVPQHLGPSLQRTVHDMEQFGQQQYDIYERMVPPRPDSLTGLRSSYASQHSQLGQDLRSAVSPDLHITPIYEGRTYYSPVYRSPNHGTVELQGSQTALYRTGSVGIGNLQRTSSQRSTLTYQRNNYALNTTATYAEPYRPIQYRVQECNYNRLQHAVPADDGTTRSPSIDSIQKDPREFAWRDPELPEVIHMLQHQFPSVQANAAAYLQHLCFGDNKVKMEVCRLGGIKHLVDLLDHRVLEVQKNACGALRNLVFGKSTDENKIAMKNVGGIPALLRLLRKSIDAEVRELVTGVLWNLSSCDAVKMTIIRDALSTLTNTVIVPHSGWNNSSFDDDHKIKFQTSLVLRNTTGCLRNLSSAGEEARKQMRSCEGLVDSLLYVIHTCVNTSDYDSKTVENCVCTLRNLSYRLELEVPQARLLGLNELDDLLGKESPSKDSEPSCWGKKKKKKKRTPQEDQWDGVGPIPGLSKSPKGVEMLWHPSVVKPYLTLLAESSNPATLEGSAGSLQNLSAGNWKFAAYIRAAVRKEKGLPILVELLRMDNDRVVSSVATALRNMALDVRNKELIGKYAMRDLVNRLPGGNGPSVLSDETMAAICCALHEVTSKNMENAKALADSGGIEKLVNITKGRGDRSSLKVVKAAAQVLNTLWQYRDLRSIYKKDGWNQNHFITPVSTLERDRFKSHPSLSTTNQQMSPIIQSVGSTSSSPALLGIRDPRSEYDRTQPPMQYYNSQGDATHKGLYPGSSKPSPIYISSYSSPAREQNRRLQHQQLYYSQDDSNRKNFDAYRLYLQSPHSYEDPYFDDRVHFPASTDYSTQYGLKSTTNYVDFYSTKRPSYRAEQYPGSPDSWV
Put plainly: co-IP; GFP-Trap Agarose on lysates of PKP4-KO + GFP-PKP4 (Rescue) keratinocytes, WT + GFP cells as control; IP buffer 20 mM Tris-HCl pH 7.5, 137 mM NaCl, 2 mM EDTA, 10% glycerol, 1% NP-40; 1 h at 4 °C; western blot. Background: In western blotting, separated proteins are transferred to a membrane and probed.

These are yes or no findings as the source states them, for the method shown. Binding seen in cells or lysates may run through a third protein. Sequences can lack the tags named with a protein.

cofilin: the binding result is recorded as “no binding”.
